The subject of the data set is high-fat diet-induced obesity experimental animals (C57BL/6J mice). In words: Organ weights (fat tissues, prostate, liver, spleen) in high-fat diet-induced obesity mice. It counts as in vivo, mouse. The settings on record: high-fat diet 13 weeks, oral once a day, 10 mmol, mean ± S.D. How it is done: In the present experiment, five-week-old C57BL/6J mice were purchased from Saeron Bio (Uiwang, Korea), and acclimated for 1 week before use in the experiment. The rearing room was controlled to have a temperature of 20±2° C., a humidity of 55±10%, and a light/darkness cycle of 12 hours during the experimental period. The experimental animals were divided into 6 groups according to the randomized block design, after 1-week of normal diet. The experimental groups were classified into Group A (normal diet group; n=10), Group B (high-fat diet control group; n=10), Group C (high-fat diet+sodium formate 10 mmol; n=9), Group D (high-fat diet+sodium butyrate 10 mmol; n=9), Group E (high-fat diet+sodium propionate 10 mmol; n=8), and Group F (high-fat diet+sodium acetate 10 mmol; n=4).
Water and feed were freely accessible. Groups A and B were orally administered with physiological saline, and the other groups were orally administered with corresponding organic acids once a day (2 μg/g bodyweight). For the test groups, obesity was induced by a high-fat diet for 13 weeks, and a high-fat diet (D12492; 60% of the calories) purchased from Research Diet (USA) was used in the experiment.
The body weights of the experimental animals were measured at a fixed time once a week during the experiment. The experimental animals were fasted for 12 hours before sacrifice, and blood was collected from eyes of the experimental animals anesthetized with ether. In order to prevent the coagulation of the blood after collection, the blood was placed in anti-coagulation tubes and left in an ice bath for 20 min. The collected blood samples were centrifuged at 3000 rpm for 10 min to separate serum therefrom, and refrigerated until use in the experiment. Thereafter, the kit through an enzymatic method was purchased from Young Dong Diagnostics (Yong-In, Korea) to measure the levels of blood lipids (triglyceride, cholesterol, HDL-Cholesterol, and LDL-Cholesterol). The organs were extracted, washed with physiological saline, dehydrated with a filter bed, and then weighed.
The kidney fat, epididymal fat, subcutaneous fat, brown fat, prostate, liver, and spleen were extracted immediately after blood collection from the control and experimental groups, and washed with physiological saline, subjected to surface moisture removal, and then weighed.

In the case of `CC(=O)[O-].[Na+]` [acetate, sodium acetate], the Liver weight is 1.09 ± 0.48^A g, the Prostate weight was 0.22 ± 0.07^A g and the Spleen weight is listed as 0.07 ± 0.01^A g.

As to `CCCC(=O)[O-].[Na+]` [butyrate, sodium butyrate], the Liver weight was 0.81 ± 0.26^B g, the Prostate weight is recorded as 0.24 ± 0.06^A g and the Spleen weight was 0.07 ± 0.01^A g.

As to `O=C[O-].[Na+]` [formate, sodium formate], the Liver weight is reported as 0.90 ± 0.10^AB g, the Prostate weight is given as 0.20 ± 0.05^A g and the Spleen weight is 0.07 ± 0.01^A g.

As for `CCC(=O)[O-].[Na+]` [propionate, sodium propionate], the Liver weight is 0.84 ± 0.05^B g, the Prostate weight is recorded as 0.21 ± 0.06^A g and the Spleen weight is listed as 0.06 ± 0.01^A g.

Values taken from patent US20190336460A1, “C[…] ACID OR PHARMACEUTICALLY ACCEPTABLE SALT THEREOF AS ACTIVE INGREDIENT FOR PREVENTING OR TREATING OBESITY OR METABOLIC SYNDROMES CAUSED BY OBESITY” (KOREA FOOD RESEARCH INSTITUTE, priority 2016, published 2019).
